This passage reports binding results from PMC7464140, “Cooperative Regulation of Campylobacter jejuni Heat-Shock Genes by HspR and HrcA” (Microorganisms, 2020).

No constants are given. Whether binding was seen depends on the method and setting. Some results given as binding are weak or reduced against the parent protein; the word gives no strength. Where a sequence is shown, tags or fusion partners need not be part of it.

The target in experiment [1] is T1, HrcA (C. jejuni), bacterial two-hybrid (BACTH) fusion (C. jejuni) (UniProt Q9PPG2).
T1 sequence: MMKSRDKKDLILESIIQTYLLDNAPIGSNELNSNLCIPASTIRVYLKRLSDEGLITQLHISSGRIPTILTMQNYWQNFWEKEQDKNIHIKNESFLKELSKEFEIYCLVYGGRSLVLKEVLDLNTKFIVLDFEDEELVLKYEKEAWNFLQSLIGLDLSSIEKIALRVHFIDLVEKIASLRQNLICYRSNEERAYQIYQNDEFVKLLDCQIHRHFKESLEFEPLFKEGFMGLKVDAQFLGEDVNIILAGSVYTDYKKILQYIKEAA
In words: two-hybrid; Bacterial Adenylate Cyclase Two-Hybrid System (BACTH) in E. coli BTH101 (Figure S3).

Experiment [2] addresses T2, His-tagged HrcA (C. jejuni) (C. jejuni) (UniProt Q9PPG2).
T2 sequence: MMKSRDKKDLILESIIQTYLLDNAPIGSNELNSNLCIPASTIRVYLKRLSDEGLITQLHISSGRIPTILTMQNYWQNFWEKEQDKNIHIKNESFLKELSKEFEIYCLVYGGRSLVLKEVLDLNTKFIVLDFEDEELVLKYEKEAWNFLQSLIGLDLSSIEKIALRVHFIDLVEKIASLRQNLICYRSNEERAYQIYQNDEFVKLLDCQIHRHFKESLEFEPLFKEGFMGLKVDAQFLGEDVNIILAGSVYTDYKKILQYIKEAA
In words: cross-linking; in vitro chemical cross-linking of HrcA and HspR proteins with formaldehyde (Figure S2); both purified.

Experiment [3] concerns the target T3, GST-HrcA fusion protein (C. jejuni) (C. jejuni) (UniProt Q9PPG2).
T3 sequence: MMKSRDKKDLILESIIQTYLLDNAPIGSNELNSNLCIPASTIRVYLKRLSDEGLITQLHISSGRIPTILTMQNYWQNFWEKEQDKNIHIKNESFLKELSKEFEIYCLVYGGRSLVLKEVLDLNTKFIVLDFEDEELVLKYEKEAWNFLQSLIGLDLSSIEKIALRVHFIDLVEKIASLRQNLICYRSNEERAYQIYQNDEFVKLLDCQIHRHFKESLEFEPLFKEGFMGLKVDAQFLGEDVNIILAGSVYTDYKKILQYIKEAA
In words: pull-down; GST, GST-HspR or GST-HrcA on Glutathione-Sepharose (equimolar) incubated with 250 ng/μL purified His-HspR in 200 μL 1× FPB, 1.5 h at 4 °C; seven washes; SDS-PAGE (Coomassie) and anti-His Western blot; both purified. For orientation: Immunoblotting shows a protein as a band on a membrane.

The target of experiment [4] is T4, GST-HspR fusion protein (C. jejuni) (C. jejuni) (UniProt Q0P926).
T4 sequence: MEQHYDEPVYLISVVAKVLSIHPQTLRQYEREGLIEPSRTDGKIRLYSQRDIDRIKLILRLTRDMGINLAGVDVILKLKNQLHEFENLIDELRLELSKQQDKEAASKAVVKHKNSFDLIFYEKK
The description is as above.

For experiment [5], the target named is HspR (C. jejuni), bacterial two-hybrid (BACTH) fusion (C. jejuni) (UniProt Q0P926). In words: two-hybrid; Bacterial Adenylate Cyclase Two-Hybrid System (BACTH) in E. coli BTH101 (Figure S3).

B1: HrcA (C. jejuni), bacterial two-hybrid (BACTH) fusion (protein, UniProt Q9PPG2 1-264)
chain: MMKSRDKKDLILESIIQTYLLDNAPIGSNELNSNLCIPASTIRVYLKRLSDEGLITQLHISSGRIPTILTMQNYWQNFWEKEQDKNIHIKNESFLKELSKEFEIYCLVYGGRSLVLKEVLDLNTKFIVLDFEDEELVLKYEKEAWNFLQSLIGLDLSSIEKIALRVHFIDLVEKIASLRQNLICYRSNEERAYQIYQNDEFVKLLDCQIHRHFKESLEFEPLFKEGFMGLKVDAQFLGEDVNIILAGSVYTDYKKILQYIKEAA
As to B1, the binding result in experiment [1] is “binds”.

B2: His-tagged HspR (C. jejuni) (natural protein, UniProt Q0P926 1-124, looked up)
chain: MEQHYDEPVYLISVVAKVLSIHPQTLRQYEREGLIEPSRTDGKIRLYSQRDIDRIKLILRLTRDMGINLAGVDVILKLKNQLHEFENLIDELRLELSKQQDKEAASKAVVKHKNSFDLIFYEKK
notes: HspR heat-shock transcriptional repressor of Campylobacter jejuni; Probably strain NCTC11168, the only C. jejuni strain named; also called His-HspR; recombinant His-tagged HspR; source: E. coli BL21 (DE3), pET15b-hspR, purified (Ni2+-NTA)
Turning to B2, the binding entry in experiment [2], in experiment [3] and in experiment [4] was “binds” each time.

B3: HspR (C. jejuni), bacterial two-hybrid (BACTH) fusion (protein, UniProt Q0P926 1-124)
chain: MEQHYDEPVYLISVVAKVLSIHPQTLRQYEREGLIEPSRTDGKIRLYSQRDIDRIKLILRLTRDMGINLAGVDVILKLKNQLHEFENLIDELRLELSKQQDKEAASKAVVKHKNSFDLIFYEKK
Consider B3, for which the binding entry in experiment [1] and in experiment [5] was “binds” each time.
